The record followed here is US20260209334A1.

Amino acid sequences for entries named in this document (tags omitted). A change or cut given only in a name is not applied to a line headed by its entry.
UniProt Q16552: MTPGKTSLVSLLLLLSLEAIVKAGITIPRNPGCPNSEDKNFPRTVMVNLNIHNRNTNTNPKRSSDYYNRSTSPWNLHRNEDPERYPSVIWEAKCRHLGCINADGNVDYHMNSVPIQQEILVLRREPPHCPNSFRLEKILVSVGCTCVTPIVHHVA

Changes are numbered by the printed parent chain. Results are given in words; binding and its absence hold for the method and conditions named. For some assays here: Binding seen in cells or lysates may run through a third protein. Some entries that bind do so weakly or less than the wild type. For some assays here: Tags and fused reporters may be left off the sequences shown.

Experiment [1] concerns the target T1, human IL-17F with C-terminal Avi-tag, biotinylated, immobilized on BLI sensors (human) (UniProt Q96PD4).
T1 sequence (chain, biotin on the C-terminal Avi-tag (BirA)): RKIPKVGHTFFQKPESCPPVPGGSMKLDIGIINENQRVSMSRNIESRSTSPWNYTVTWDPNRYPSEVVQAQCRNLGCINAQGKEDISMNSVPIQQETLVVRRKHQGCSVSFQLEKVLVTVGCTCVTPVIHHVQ
Nature of the experiment: monomeric VHH on immobilized IL-17F homodimer.

In experiment [2] the target is human IL-17A with C-terminal Avi-tag, biotinylated, immobilized on BLI sensors (human) (UniProt Q16552). Nature of the experiment: BLI on IL-17A, 50 nM VHH, untreated or after 10 min at 95 °C.
For experiment [3] the target is unchanged. As to the kind of experiment: BLI, IL-17A on the sensor, VHH at 50 nM, kept at room temperature (Control) or heated 10 min at 95 °C. In general terms: Biolayer interferometry detects binding as a change in optical thickness at a sensor tip.
The target is the same in experiment [4]. Nature of the experiment: BLI.
Experiment [5] has as its target T1, human IL-17F with C-terminal Avi-tag, biotinylated, immobilized on BLI sensors (human). As to the kind of experiment: BLI.
The target in experiment [6] is human IL-17A with C-terminal Avi-tag, biotinylated, immobilized on BLI sensors (human) (UniProt Q16552). Nature of the experiment: monomeric VHH on immobilized IL-17A homodimer.
Experiment [7] has the same target. Nature of the experiment: BLI, biotinylated IL-17A immobilized, monovalent VHH as analyte.
In experiment [8] the target is T1, human IL-17F with C-terminal Avi-tag, biotinylated, immobilized on BLI sensors (human). Nature of the experiment: BLI, biotinylated IL-17F immobilized, monovalent VHH as analyte.
The target of experiment [9] is T2, human IL-17F homodimer, bacterially expressed construct (residues 39-163 with GSEGE linker) (human) (UniProt Q96PD4).
T2 sequence: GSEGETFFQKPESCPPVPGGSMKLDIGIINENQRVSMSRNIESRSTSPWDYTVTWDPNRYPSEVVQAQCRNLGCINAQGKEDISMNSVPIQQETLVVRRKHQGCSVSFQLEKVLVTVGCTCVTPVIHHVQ
As to the kind of experiment: co-expression in E. coli, co-purification, crystallization.

B1: Bm43B02 (VHH)
VHH: QVQLVESGGGLVQAGGSLNLSCVISRRTPSGYAMGWFRQASGKEREFVAAISWIGGGAVYADSVKGRFTMSRDNAKNTVYLQMNSLKPEDTAVYYCNDMPYGLDTTMDDYDYWGQGTLVTVSS
As for B1, the binding result in experiment [1], in experiment [2], in experiment [3], in [4], in experiment [5] and in [6] was “binds” in each case.

B2: Bm44B11 (VHH)
VHH: B1 VHH with L118Q
For the molecule B2, the binding result in experiment [2] and in experiment [3] was “binds” each time.

B3: VHH662 (VHH)
VHH: EVQLVESGGGSVQAGDSLRLSCAASGRANSINWFGWFRQTPGKEREFVAGIRWSDAYTEYANSVKGRFTISRDNAKNTVDLQMDSLKPEDTAVYYCVLDLSTVRYWGQGTQVTVSS
With B3, in experiment [7], the binding result is on record as “binds”.

B4: Re42B04a (VHH)
VHH: QVQLVESGGGLVQVGGSLRLSCEVSGLPVSSYAMGWFRQAPEKEREFVAAISWIGGDSRYAHFVKGRFTISRDNAKNTVHLQMDSLKPEDTAVYYCNDMPYGLDTRMDEYEYWGQGTQVTVSS
In the case of B4, the binding entry in experiment [8], in [7], in experiment [2] and in [3] was “binds” throughout.

B5: Bm42B11 (VHH)
VHH: QVQLVESGGDLVQAGGSLRLSCSVSGLRVSSYAMGWFRQAPGKEREFVAAISWVGGDTRYADSVKGRFTMSRDNAKKQVYLEMNSLKPEDTAVYYCNDMPYGMETRMDDYASWGQGTQVTVSS
In the case of B5, the binding entry in [2] and in experiment [3] was “binds” throughout.

B6: Bm17B02 (VHH)
VHH: QVQLVESGGGLVNTGGSLRLSCVVSGHTSEISAMGWYRQAPGKQRELVALITSRSGDTHYSDSVKGRFSISRDNAKNTMYLQMNSLNPDDTAVYYCVHNEPGHLYMAQGTQVTVSS
For the molecule B6, the binding entry in [9] was “binds”.

B7: Re42F08 (VHH)
VHH: B6 VHH with N13K, T14A
Take B7: the binding result in [8] and in [7] was “binds” throughout.

B8: Bm42A03 (VHH)
VHH: QVQLVESGGGLVQPGGSLRLSCVASGFTFSSFAMSWYRQDPGKERKLVAAITNDGGTTFYSDLVKGRFTISRDNTKNTVYLQMNNVKPDDAAVYYCMAVRGLYGSNWYDYPFELWGQGTQVTVSS
Take B8: the binding result in [2] and in experiment [3] was “binds” throughout.

B9: Bm44G10 (VHH)
VHH: B8 VHH with K43R
For B9, the binding entry in [2] and in experiment [3] was “binds” in each case.

B10: Bm44C09 (VHH)
VHH: QVQLVESGGGLVQAGGSLRLSCAASGLAVSSYAMGWFRQAPGKEREFVAAISWISGGTKYADSVKDRFTMSRDNAKKQVYLEMNSLKPEDTAVYYCNDMPYGLDTRMDDYKYWGQGIQVTVSS
For B10, the binding entry in [2] and in experiment [3] was “binds” in each case.

B11: Re42H11 (VHH)
VHH: B10 VHH with A28T, V29A, D66G, D109E, K111A, I117T
On to B11, for which the binding entry in experiment [9] is listed as “binds”.

B12: VHH664 (VHH)
VHH: EVQLVESGGGLVQAGGSLRLSCAASGRTYDAMGWLRQAPGKEREFVAAISGSGDDTYYADSVKGRFTISKDNAGITMYLQMNSLKPEDTAVYYCATRRGLYYVWDSNDYENWGQGTQVTVSS
Take B12: the binding entry in experiment [7] is “binds”.
